# From the supplement of paper PMC12024529
# Structures can show the parent of a compound that is named as a salt. The list shows a part of the results. Part of the spread comes from offsets between plates or batches.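 The cells are HEK293 lines stably expressing B-domain-deleted factor VIII fused to Gaussia luciferase, either wild type or a misfolding-prone missense mutant. Each score is mean luminescence from triplicate wells minus the DMSO mean, divided by the DMSO standard deviation; a score of 2 or more counts as a hit, and low scores may reflect lower secretion or poorer cell viability.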
# Legend:
# HEK293 WT BDD-FVIII-Gluc = experiment: secreted FVIII-Gluc luciferase Z-score vs DMSO control; higher = more FVIII-Gluc secretion; settings: 5 µM; 24 h
# [1] = system: HEK293 p.N1941S BDD-FVIII-Gluc; experiment: as above; settings: 5 µM; 24 h
Structure (SMILES),secreted FVIII-Gluc luciferase Z-score (HEK293 WT BDD-FVIII-Gluc),secreted FVIII-Gluc luciferase Z-score [1]
CCOC(=O)c1cncn1[C@H](C)c1ccccc1 [Etomidate],inactive: -5.6,inactive: -1.12
CN(C)C(=O)Oc1ccc[n+](C)c1 [Pyridostigmine Bromide (Mestinon)],inactive: -4.54,inactive: 0.709
CN1C2CC(O)CC1C1OC12 (stereo not given) [Scopine],inactive: 1.1,inactive: -0.319
CCCCCCCCCCCCCCCC[n+]1ccccc1 [Cetylpyridinium Chloride],inactive: -4.55,inactive: -3.04
CCN(C)C(=O)Oc1cccc([C@H](C)N(C)C)c1 [Rivastigmine tartrate (Exelon)],inactive: 0.166,inactive: 0.909
Cc1cccc(C(C)c2c[nH]cn2)c1C (stereo not given) [Medetomidine HCl],inactive: 0.716,inactive: -0.969
C=C1C[C@@H]2[C@H](CC[C@]3(C)C(=O)CC[C@@H]23)[C@@]2(C)C=CC(=O)C=C12 [Exemestane],inactive: 0.166,inactive: 0.824
CC(C)NCC(O)c1ccccc1Cl (stereo not given) [Clorprenaline HCL],active: 3.8,inactive: 0.0542
CCCN1C[C@H](CSC)C[C@@H]2c3cccc4[nH]cc(c34)C[C@H]21 [Pergolide mesylate],inactive: -0.664,inactive: -1.19
C/C=C(\C)C(=O)N[C@@H](c1ccccc1)[C@@H](O)C(=O)O[C@H]1C[C@@]2(O)[C@@H](OC(=O)c3ccccc3)[C@@H]3[C@]4(OC(C)=O)CO[C@@H]4C[C@H](O)[C@@]3(C)C(=O)[C@H](OC(C)=O)C(=C1C)C2(C)C [Cephalomannine],inactive: -4.73,inactive: -5.98

# Some values from above.
# In secreted FVIII-Gluc luciferase Z-score [1], C/C=C(\C)C(=O)N[C@@H](c1ccccc1)[C@@H](O)C(=O)O[C@H]1C[C@@]2(O)[C@@H](OC(=O)c3ccccc3)[C@@H]3[C@]4(OC(C)=O)CO[C@@H]4C[C@H](O)[C@@]3(C)C(=O)[C@H](OC(C)=O)C(=C1C)C2(C)C [Cephalomannine] is listed with inactive: -5.98
# In secreted FVIII-Gluc luciferase Z-score (HEK293 WT BDD-FVIII-Gluc), CC(C)NCC(O)c1ccccc1Cl (stereo not given) [Clorprenaline HCL] is listed with active: 3.8
